# PMC9610083
# By UniProt entry, the sequences of proteins in these tests, tags left out.
# UniProt P14635: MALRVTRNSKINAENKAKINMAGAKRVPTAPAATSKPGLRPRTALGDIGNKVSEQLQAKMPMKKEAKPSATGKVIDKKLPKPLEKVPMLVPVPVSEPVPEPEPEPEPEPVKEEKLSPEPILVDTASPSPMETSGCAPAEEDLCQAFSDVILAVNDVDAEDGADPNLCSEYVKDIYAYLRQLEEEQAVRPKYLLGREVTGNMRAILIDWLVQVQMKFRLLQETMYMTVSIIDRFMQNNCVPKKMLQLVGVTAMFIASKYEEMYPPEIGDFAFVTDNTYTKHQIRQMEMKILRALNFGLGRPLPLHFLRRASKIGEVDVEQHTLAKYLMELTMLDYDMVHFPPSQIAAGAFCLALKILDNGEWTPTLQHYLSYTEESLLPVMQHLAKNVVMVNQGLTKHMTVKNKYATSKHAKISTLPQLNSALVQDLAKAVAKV
# No constants are given. Whether binding was seen depends on the method and setting. In cells and extracts the contact can be indirect. Some results given as binding are weak or reduced against the parent protein; the word gives no strength.
# Experiments:
# [1] = biological target: cyclin B1 (human (endogenous in HFF)) (UniProt P14635); experiment: condition: only with 40 µM 3MB-PP1 (4 h before harvest and during cell lysis); co-IP; lysates of HFF infected with BAD-UL97-as1 (MOI 0.5, 4 d.p.i.), treated with 40 µM 3MB-PP1 from 4 h before harvest and again during lysis; cyclin B1 immunoprecipitated with pAb-cyclin B1, pUL97 detected by Western blot; two biological replicates
# [2] = biological target: cyclin B1 (human (endogenous in HFF)) (UniProt P14635); experiment: co-IP; lysates of HFF infected with BADwt or BAD-UL97-as1 (MOI 0.5, 4 d.p.i.); cyclin B1 immunoprecipitated with pAb-cyclin B1, pUL97 detected by Western blot; DMSO solvent control, and for BADwt also 40 µM 3MB-PP1 from 4 h before harvest and during lysis; two biological replicates
substance,measurement,setting,value
"analog-sensitive HCMV protein kinase pUL97-as1 (H411G), expressed by recombinant BAD-UL97-as1 (from UniProt P16788 1-707) (enzyme)",binding,[1],no binding
same,binding,[2],binds
